Results are given in words; binding and its absence hold for the method and conditions named. In cells and extracts the contact can be indirect. Some binding calls cover weakened binding; strength is not graded here. One block for each binder: values may come before it.
Tests used:
[1] = biological target: T1, apoptosis-associated speck-like protein (ASC) (mouse (endogenous in MASMCs)) (UniProt Q9EPB4); assay: co-IP; anti-ASC or anti-NLRP3 on magnetic beads, incubated with VSMC lysate 30 min at room temperature; blots with anti-NLRP3, anti-Caspase-1, anti-ASC; cells transfected with pcDNA3.1, with or without TNF-α (25 ng/ml) for 24 h
T1 sequence: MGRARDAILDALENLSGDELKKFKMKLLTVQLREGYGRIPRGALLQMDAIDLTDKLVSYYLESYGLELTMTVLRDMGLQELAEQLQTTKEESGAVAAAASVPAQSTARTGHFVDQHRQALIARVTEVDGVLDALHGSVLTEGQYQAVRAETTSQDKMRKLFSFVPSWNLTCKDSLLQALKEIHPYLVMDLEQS

The chains behind the UniProt entries cited, without tags or fusion partners.
UniProt Q8R4B8: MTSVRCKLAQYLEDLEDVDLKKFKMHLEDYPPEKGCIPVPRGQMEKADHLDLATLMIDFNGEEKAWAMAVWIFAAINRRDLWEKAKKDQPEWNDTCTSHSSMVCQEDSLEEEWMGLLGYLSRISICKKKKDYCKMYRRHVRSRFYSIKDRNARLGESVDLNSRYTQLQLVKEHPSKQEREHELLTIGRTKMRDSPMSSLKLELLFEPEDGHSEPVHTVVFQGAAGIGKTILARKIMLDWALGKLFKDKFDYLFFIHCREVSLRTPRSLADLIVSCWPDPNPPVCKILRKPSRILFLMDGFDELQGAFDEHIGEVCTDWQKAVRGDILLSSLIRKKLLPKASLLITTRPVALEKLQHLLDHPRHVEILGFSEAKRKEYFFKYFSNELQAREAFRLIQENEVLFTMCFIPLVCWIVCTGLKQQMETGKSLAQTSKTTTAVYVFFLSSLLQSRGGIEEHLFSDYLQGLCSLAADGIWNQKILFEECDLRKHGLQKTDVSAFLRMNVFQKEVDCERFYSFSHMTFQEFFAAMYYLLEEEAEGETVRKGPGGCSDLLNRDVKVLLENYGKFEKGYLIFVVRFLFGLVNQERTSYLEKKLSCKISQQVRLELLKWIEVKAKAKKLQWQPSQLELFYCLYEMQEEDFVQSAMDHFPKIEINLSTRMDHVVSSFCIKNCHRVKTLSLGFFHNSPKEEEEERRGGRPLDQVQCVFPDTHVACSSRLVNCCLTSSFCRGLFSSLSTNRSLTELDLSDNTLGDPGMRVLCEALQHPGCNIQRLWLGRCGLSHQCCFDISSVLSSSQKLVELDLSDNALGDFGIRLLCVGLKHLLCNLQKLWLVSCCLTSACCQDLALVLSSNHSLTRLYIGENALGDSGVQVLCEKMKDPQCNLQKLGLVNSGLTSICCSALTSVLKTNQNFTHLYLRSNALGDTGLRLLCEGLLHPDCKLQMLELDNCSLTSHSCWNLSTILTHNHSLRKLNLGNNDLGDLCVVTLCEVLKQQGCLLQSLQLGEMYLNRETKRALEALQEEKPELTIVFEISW

[2] = biological target: Nucleotide-binding oligomerization domain-like receptor protein 3 (NLRP3) (mouse (endogenous in MASMCs)) (UniProt Q8R4B8); assay: as above
[3] = biological target: T1, apoptosis-associated speck-like protein (ASC) (mouse (endogenous in MASMCs)); assay: condition: only circACTA2 overexpression in the cells; co-IP; anti-ASC on magnetic beads, incubated with lysate of VSMCs overexpressing circACTA2 and treated with TNF-α (25 ng/ml) for 24 h; blots with anti-NLRP3, anti-Caspase-1
[4] = biological target: T2, NF-κB p50 subunit (mouse (endogenous in MASMCs)), P25799; assay: co-IP; anti-p50 on magnetic beads, incubated with lysate of VSMCs transfected with different concentrations of circACTA2-expressing plasmid; blot with anti-p65; conditions: remark: other sources report otherwise
T2 chain: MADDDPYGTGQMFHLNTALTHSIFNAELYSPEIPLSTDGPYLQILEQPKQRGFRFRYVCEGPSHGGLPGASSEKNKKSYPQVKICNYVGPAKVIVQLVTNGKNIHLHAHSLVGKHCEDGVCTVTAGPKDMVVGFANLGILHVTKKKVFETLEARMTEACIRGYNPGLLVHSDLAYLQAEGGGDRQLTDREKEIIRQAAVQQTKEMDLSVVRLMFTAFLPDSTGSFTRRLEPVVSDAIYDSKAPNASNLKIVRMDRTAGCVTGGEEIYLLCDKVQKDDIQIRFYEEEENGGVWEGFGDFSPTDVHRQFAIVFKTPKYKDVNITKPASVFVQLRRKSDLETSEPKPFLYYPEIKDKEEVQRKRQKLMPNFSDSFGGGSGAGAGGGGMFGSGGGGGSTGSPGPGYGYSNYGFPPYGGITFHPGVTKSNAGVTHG

binding [1]: binds
binding [2]: binds
binding [3]: no binding
B1: caspase-1 (enzyme, UniProt P29452 1-402)
chain: MADKILRAKRKQFINSVSIGTINGLLDELLEKRVLNQEEMDKIKLANITAMDKARDLCDHVSKKGPQASQIFITYICNEDCYLAGILELQSAPSAETFVATEDSKGGHPSSSETKEEQNKEDGTFPGLTGTLKFCPLEKAQKLWKENPSEIYPIMNTTTRTRLALIICNTEFQHLSPRVGAQVDLREMKLLLEDLGYTVKVKENLTALEMVKEVKEFAACPEHKTSDSTFLVFMSHGIQEGICGTTYSNEVSDILKVDTIFQMMNTLKCPSLKDKPKVIIIQACRGEKQGVVLLKDSVRDSEEDFLTDAIFEDDGIKKAHIEKDFIAFCSSTPDNVSWRHPVRGSLFIESLIKHMKEYAWSCDLEDIFRKVRFSFEQPEFRLQMPTADRVTLTKRFYLFPGH

binding [4]: binds
B2: NF-κB p65 subunit, Q04207 1-549 (protein)
chain: MDDLFPLIFPSEPAQASGPYVEIIEQPKQRGMRFRYKCEGRSAGSIPGERSTDTTKTHPTIKINGYTGPGTVRISLVTKDPPHRPHPHELVGKDCRDGYYEADLCPDRSIHSFQNLGIQCVKKRDLEQAISQRIQTNNNPFHVPIEEQRGDYDLNAVRLCFQVTVRDPAGRPLLLTPVLSHPIFDNRAPNTAELKICRVNRNSGSCLGGDEIFLLCDKVQKEDIEVYFTGPGWEARGSFSQADVHRQVAIVFRTPPYADPSLQAPVRVSMQLRRPSDRELSEPMEFQYLPDTDDRHRIEEKRKRTYETFKSIMKKSPFNGPTEPRPPTRRIAVPTRNSTSVPKPAPQPYTFPASLSTINFDEFSPMLLPSGQISNQALALAPSSAPVLAQTMVPSSAMVPLAQPPAPAPVLTPGPPQSLSAPVPKSTQAGEGTLSEALLHLQFDADEDLGALLGNSTDPGVFTDLASVDNSEFQQLLNQGVSMSHSTAEPMLMEYPEAITRLVTGSQRPPDPAPTPLGTSGLPNGLSGDEDFSSIADMDFSALLSQISS
